# Some results were stated once for a whole list of compounds, not compound by compound. Some compounds share one range, which may span the group rather than tell each member.
# Tested on: C6 glioma tumors
# Test: C6 glioma tumors subcutaneously implanted in mice, oral administration
# Format: in vivo
# Conditions: 200 mg/kg/day, day 18 post-implantation, subcutaneous C6 tumors in BALB/c nu/nu mice
# Description: The following protocol can be used to perform xenograft experiments:
# Female athymic mice (BALB/c, nu/nu) are obtained from Simonsen Laboratories (Gilroy, Calif.). All animals are maintained under clean-room conditions in Micro-isolator cages with Alpha-dri bedding. They receive sterile rodent chow and water ad libitum.
# Cell lines are grown in appropriate medium (for example, MEM, DMEM, Ham's F10, or Ham's F12 plus 5%-10% fetal bovine serum (FBS) and 2 mM glutamine (GLN)). All cell culture media, glutamine, and fetal bovine serum are purchased from Gibco Life Technologies (Grand Island, N.Y.) unless otherwise specified. All cells are grown in a humid atmosphere of 90-95% air and 5-10% CO2 at 37° C. All cell lines are routinely subcultured twice a week and are negative for mycoplasma as determined by the Mycotect method (Gibco).
# Cells are harvested at or near confluency with 0.05% Trypsin-EDTA and pelleted at 450 x g for 10 min. Pellets are resuspended in sterile PBS or media (without FBS) to a particular concentration and the cells are implanted into the hindflank of the mice (8-10 mice per group, 2-10×10^6 cells/animal). Tumor growth is measured over 3 to 6 weeks using venier calipers. Tumor volumes are calculated as a product of length×width×height unless otherwise indicated. P values are calculated using the Students t-test. Test compounds in 50 -100 μL excipient. (DMSO, or VPD:D5W) can be delivered by IP injection at different concentrations generally starting at day one after implantation.
# The compounds also maintain excellent activity when tested in vivo. […] In one experiment, C6 human glioma cells (3×10^6 cells, n=10-20 animals/group) were implanted subcutaneously in the hindflank of female BALB/c nu/nu mice on day 0. […] Tumor growth was measured using vernier calipers and tumor volumes were calculated as the product of length×width×height. [drawing 73]
row,SMILES,inhibition of tumor growth
1,"Cc1cccc2c1/C(=C/c1[nH]c(C)c(CCC(=O)O)c1C)C(=O)N2 [Example 21, 3-[2,4-Dimethyl-5-(4-methyl-2-oxo-1,2-dihydroindol-3-ylidene-methyl)-1H-pyrrol-3-yl]-propionic acid]",40-45%
2,"Cc1[nH]c(/C=C2\C(=O)Nc3ccc(Br)cc32)c(C)c1CCC(=O)O [Example 19, 3-[5-(5-Bromo-2-oxo-1,2-dihydroindol-3-ylidenemethyl)-2,4-dimethyl-1H-pyrrol-3-yl]-propionic acid]",40-45%
3,"Cc1[nH]c(/C=C2\C(=O)Nc3ccc(Cl)cc32)c(C)c1CCC(=O)O [Example 3, 3-[5-(5-Chloro-2-oxo-1,2-dihydroindol-3-ylidenemethyl)-2,4-dimethyl-1H-pyrrol-3-yl]-propionic acid]",40-45%

# — patent publication US7119090B2, “Pyrrole substituted 2-indolinone protein kinase inhibitors” (Sugen, Inc., priority 1998, dated 2006)
